Test results: PubChem BioAssay AID1347075 (National Center for Advancing Translational Sciences (NCATS), 2019)
The whole screen tested about 400,000 compounds, of which about 5,500 (1.4%) were called active. Inconclusive means that the source gave no clear call. Such entries were picked first, then a sample of the others. The call rests on the fitted dose curve; in most records, active means well fitted cell-killing curve with a large enough effect; inconclusive means small, poorly fitted or top-dose-only effect, or effect the other way; inactive means flat fitted curve, though single readings scatter. Potencies beside an inconclusive call are fits to weak or partial responses and may not hold up.

experiment: qHTS assay for MDR1-selective chemotherapeutics: Primary screen using the parental adenocarcinoma cell KB-3-1; details: KB-3-1 viability, CellTiter-Glo ATP luminescence, 72 h; activity change, negative = cytotoxic: at 46.1 µM (top of the series); further: nearly all actives have a fitted effect of over 60% in size
Outline: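 72 h, 37 °C compound treatment of KB-3-1 parental cells; CellTiter-Glo added, 10 min, luminescence read. Data corrected against DMSO-only plates and normalized before curve fitting.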
On the % scale 0 is the no-effect control and ±100 the full control effect; potency means the concentration at half of the fitted maximal effect.

Row | SMILES | Potency | activity change, negative = cytotoxic
1 | COc1ccccc1CC(=O)Nc1cc(Cl)ccc1O | inconclusive: 29.1 µM [cytotoxic, single point] | –
2 | NC(=O)N/N=C/c1cn(-c2ccccc2)nc1-c1ccccc1 | inconclusive: 18.4 µM [cytotoxic, partial curve, poor fit] | –
3 | C[C@H](CO)N1C[C@H](C)[C@@H](CN(C)S(=O)(=O)c2ccccc2)Oc2ccc(NC(=O)Nc3ccc(C(F)(F)F)cc3)cc2C1=O | inconclusive: 29.1 µM [cytotoxic, single point] | –
4 | CN(C)c1ccc(-c2c3ccccc3nc3ccccc23)cc1 | inconclusive: 16.4 µM [rising, single point] | –
5 | COc1ccc([N+](=O)[O-])cc1CN1CCN(c2ncc(Cc3ccccc3)cn2)CC1 | inconclusive: 29.1 µM [cytotoxic, single point] | –
6 | CCOC(=O)c1cn(CC)c2cc(N3CCOCC3)c(F)cc2c1=O | inactive | –
7 | CCC(C)n1c(SCC(=O)NC2CCS(=O)(=O)C2)nc2ccccc2c1=O (configuration not stated) | inactive | –
8 | COc1ccc(C(O)c2nc(-c3ccc(C)c(C)c3)cs2)cc1 (configuration not stated) | inconclusive: 0.411 µM [cytotoxic, full curve, poor fit] | –
9 | Cc1ccc(/C(N)=N/OC(=O)C23CC4CC(CC(C4)C2)C3)cc1 | inconclusive: 20.6 µM [cytotoxic, single point] | –
10 | O=C1CSC(=Nc2cccc(C(=O)O)c2)N1 | inactive | –
11 | COc1cc(OC)nc(C(NC(=O)C2CCN(Cc3c[nH]c4ccccc34)CC2)c2ccc(Cl)cc2)n1 (configuration not stated) | inconclusive: 29.1 µM [cytotoxic, single point] | –
12 | Cn1nc(-c2ccc(S(N)(=O)=O)s2)cc1C(F)(F)F | inconclusive: 29.1 µM [cytotoxic, single point] | –
13 | COc1ccc(NC(=O)Cn2c(=O)oc3cc(S(=O)(=O)N4CCC(C)CC4)ccc32)c(OC)c1 | inconclusive: 20.6 µM [cytotoxic, single point] | –
14 | Cn1c(=O)c2[nH]c(CNc3ccc(C(=O)O)cc3)nc2n(C)c1=O | inconclusive: 29.1 µM [cytotoxic, single point] | –
15 | Cc1nc(Nc2nc3c(c(=O)[nH]2)CCC3)nc2ccccc12 | active: 5.8 µM | –
16 | COc1ccc(N2CCN(c3ncnc4sc(C(=O)NCC5CCCO5)c(C)c34)CC2)cc1 (configuration not stated) | inactive | –
17 | N#Cc1nc(-c2ccc(OCc3ccc(Cl)cc3)cc2)oc1N1CCCC1 | inactive | –
18 | CC(C)NCC(O)Cn1c2c(c3ccccc31)CCc1c-2cnn1-c1ccccc1 (configuration not stated) | active: 16.4 µM | –
19 | O=C1C(=O)C(c2cc(O)c(O)c(O)c2)Oc2cc(O)cc(O)c21 (configuration not stated) | inconclusive: 11.6 µM [rising, partial curve, poor fit] | –
20 | CCOc1ccc(Nc2nc(N)c3ccccc3n2)cc1 | inconclusive: 29.1 µM [cytotoxic, single point] | –
21 | CCCS(=O)(=O)c1c(Nc2ccccc2C)sc(C(=O)c2ccccc2)c1N | inconclusive: 18.4 µM [cytotoxic, single point] | –
22 | COc1ccc(Nc2nc(NCCCN3CCOCC3)nc(N)c2[N+](=O)[O-])cc1 | inconclusive: 16.4 µM [rising, single point] | –
23 | O=c1c(Cl)c(Cl)cnn1Cc1ccc(F)cc1 | inconclusive: 16.4 µM [cytotoxic, partial curve] | –
24 | COc1ccc(N2C(=O)CC(Sc3nnc(-c4ccccc4)o3)C2=O)cc1 (configuration not stated) | inconclusive: 17.8 µM [cytotoxic, single point] | –

Sorted by SMILES length (falling): some entries from above.
Row | SMILES | Potency | activity change, negative = cytotoxic
14 | Cn1c(=O)c2[nH]c(CNc3ccc(C(=O)O)cc3)nc2n(C)c1=O | inconclusive: 29.1 µM [cytotoxic, single point] | –
9 | Cc1ccc(/C(N)=N/OC(=O)C23CC4CC(CC(C4)C2)C3)cc1 | inconclusive: 20.6 µM [cytotoxic, single point] | –
1 | COc1ccccc1CC(=O)Nc1cc(Cl)ccc1O | inconclusive: 29.1 µM [cytotoxic, single point] | –

Next structures follow.

Row | SMILES | Potency | activity change, negative = cytotoxic
25 | O=C(CCCN1C(=O)C(c2ccccc2)Oc2cccnc21)Nc1ccc(Br)cc1F (configuration not stated) | inactive | –
26 | COc1ccc(CN2CCc3ccccc3C2)c(OC)c1OC | inactive | –
27 | Nc1ncnc2c(C3OC(CO)C(O)C3O)c[nH]c12 (configuration not stated) | active: 0.184 µM | –
28 | COc1ccc2c(CNCCc3cccs3)c(C(=O)O)n(Cc3ccccc3)c2c1 | inactive | –
29 | COc1ccc(CCN2C(=O)CC(Cc3cccc(C)c3)C2=O)cc1OC (configuration not stated) | inconclusive: 23.1 µM [rising, partial curve, poor fit] | –
30 | COc1ccc(-n2nnnc2C2(C)CCC(=O)N2Cc2ccccc2)cc1 (configuration not stated) | inactive | –
31 | O=C(Nc1ccc2c(c1)OCO2)c1cc(-c2ccccc2Cl)on1 | inconclusive: 23.1 µM [cytotoxic, single point] | –
32 | O=C(NC1CCCC1)C1CC(c2ccc(F)cc2)=NO1 (configuration not stated) | inconclusive: 20.6 µM [rising, single point] | –
33 | COc1ccc(-n2c(C)cc(C(=O)COc3ccc(C)nc3[N+](=O)[O-])c2C)cc1 | inconclusive: 29.1 µM [cytotoxic, single point] | –
34 | COC/C=C/C1=CC(=O)C[C@H](c2ccc3c(c2)OCO3)C1 | inconclusive: 32.6 µM [cytotoxic, single point] | –
35 | CN(C)c1ccc(/C=C/c2ccnc3c([N+](=O)[O-])cccc23)cc1 | – | inconclusive: 23.2%
36 | Cc1cc(C)c(NC(=O)C2C(=O)Nc3ccccc3C(=O)N2C(C)(C)C)c(C)c1 (configuration not stated) | inactive | –
37 | Cc1ccc(C(=O)CSc2nnc(-c3cccnc3)n2N)cc1 | inconclusive: 29.1 µM [cytotoxic, single point] | –
38 | O=C(Nc1ccc(Cl)c(Cl)c1)Nc1nc(-c2ccccc2)cs1 | active: 11.6 µM | –
39 | CN(C)c1ccc(/C=C2\C=Nc3ccccc32)cc1 | inactive | –
40 | CN(C)c1ccc(C(=O)/C=C/c2cccnc2)cc1 | active: 18.4 µM | –
41 | CC(C)c1ccc(NC(=O)Nc2nc(C(N)C(C)C)cs2)cc1 (configuration not stated) | inconclusive: 29.1 µM [cytotoxic, single point] | –
42 | COc1ccc(C)cc1Nc1n[n+](-c2ccccc2)c(-c2ccc(SC)cc2)s1 | inconclusive: 25.9 µM [cytotoxic, single point] | –
43 | CC(NC(=O)c1ccccc1)C(=O)NC1=NCCS1 (configuration not stated) | inactive | –
44 | CCOC(=O)C1CCN(C(=O)c2cccc(S(=O)(=O)N3CCCc4ccccc43)c2)CC1 | inactive | –
45 | COc1ccc(/C=N/Nc2cc(C)nc3ccccc23)cc1 | active: 14.6 µM | –
46 | CCCn1c(SCC(=O)c2cc(C)n(-c3ccc4c(c3)OCO4)c2C)n[nH]c1=O | active: 11.6 µM | –
47 | COc1ccccc1NC(=O)Cn1nnc(C(=O)NCc2ccc3c(c2)OCO3)c1N | inconclusive: 16.4 µM [cytotoxic, single point] | –
48 | CCc1ccc(/C=C2\SC(=S)N(CCCC(=O)N3CCCC3)C2=O)cc1 | inconclusive: 16.4 µM [cytotoxic, single point] | –

Row | SMILES | Potency | activity change, negative = cytotoxic
49 | Cc1nn(Cc2ccccc2Cl)c(C)c1NC(=O)NC12CC3CC(CC(C3)C1)C2 | inconclusive: 29.1 µM [cytotoxic, single point] | –
50 | NC(=O)CSc1nc2ccc([N+](=O)[O-])cc2[nH]1 | inactive | –
51 | C[C@@H]1CN([C@H](C)CO)C(=O)CCCn2cc(nn2)CO[C@H]1CN(C)S(C)(=O)=O | inconclusive: 0.0052 µM [rising, full curve, poor fit] | –
52 | O=C(CCc1nc(-c2ccccc2F)no1)Nc1ccc(Oc2ccccc2)cc1 | inconclusive: 16.4 µM [cytotoxic, partial curve, poor fit] | –
53 | O=C(NCC(c1ccco1)N1CCN(c2ccccc2F)CC1)C(=O)NC1CC1 (configuration not stated) | inactive | –
54 | Cc1cc(NC(=O)c2ccc3c(c2)OCO3)ccc1NC(=O)c1ccco1 | inconclusive: 23.1 µM [cytotoxic, single point] | –
55 | O=C(Cc1noc2ccccc12)Nc1ccc2ccccc2c1 | inconclusive: 29.1 µM [cytotoxic, single point] | –
56 | CC(=O)c1ccc(OCc2cc(C(=O)N(C)Cc3nc4c(C)cccc4[nH]3)no2)cc1 | inconclusive: 23.1 µM [rising, single point] | –
57 | CN(C)c1ccc(Sc2ccc3nc(N)nc(N)c3c2)cc1 | active: 8.2 µM | –
58 | Cc1cccc2cc(C#N)c(NCCNS(=O)(=O)c3ccccc3)nc12 | inactive | –
59 | CCOC(=O)c1cccc(Nc2nc(C(=O)OCC)nc3ccccc23)c1 | inactive | –
60 | COc1ccc(Cl)cc1-c1nc(-c2ccc(NC(=O)c3ccncc3)cc2)no1 | inactive | –
61 | Cc1cc(C(=O)N2CCC(C(N)=O)CC2)c(C)o1 | inactive | –
62 | CC(C)(C)c1ccc(C(=O)N/N=C/c2ccccn2)cc1 | inconclusive: 25.9 µM [cytotoxic, single point] | –
63 | O=C1C2C3C=CC(C3)C2C(=O)N1c1cccc2cccnc12 (configuration not stated) | inactive | –
64 | CCN(C(=O)COC(=O)COc1ccc(Cl)c(C)c1)C1CCS(=O)(=O)C1 (configuration not stated) | inactive | –
65 | O=C(C1CCN(C2CCN(Cc3ccc4c(c3)CCO4)CC2)CC1)N1CCOCC1 | inconclusive: 32.6 µM [cytotoxic, partial curve, poor fit] | –
66 | Cc1ccc(CSc2nnc(-c3cccc(S(=O)(=O)N4CCOCC4)c3)n2C2CCCC2)cc1 | inconclusive: 18.4 µM [cytotoxic, single point] | –
67 | O=C(Nc1ccc(F)cc1)c1cccc(NC(=O)C2C3CC4OC(=O)C2C4C3)c1 (configuration not stated) | inactive | –
68 | CCN(C[C@H]1N[C@@](Cc2ccccc2)(C(=O)OC)[C@H]2C(=O)N(Cc3ccccc3)C(=O)[C@@H]12)C(=O)Nc1ccc(F)cc1 | inconclusive: 9.2 µM [cytotoxic, partial curve] | –
69 | Cc1ccc(-n2ncc3c(NCCCn4ccnc4)ncnc32)cc1 | inactive | –
70 | O=C(CCC(=O)N1CCOc2ccccc21)Nc1ccccc1Cl | inactive | –
71 | Cc1ccc(Cl)cc1N1CCN(C(=O)COc2ccc3c(c2)CCC3)CC1 | inconclusive: 29.1 µM [cytotoxic, single point] | –
72 | COc1ccc(C(=O)NNC(=S)NC(=O)c2ccccc2)cc1 | inconclusive: 32.6 µM [cytotoxic, single point] | –
